Consider two molecules from PMC10321287, “β-amyloid binds to microglia Dectin-1 to induce inflammatory response in the pathogenesis of Alzheimer's disease” (International Journal of Biological Sciences, 2023).

Amino acid sequences for entries named in this document (tags omitted). Residues count along the entry.
UniProt P05067, residues 672-713: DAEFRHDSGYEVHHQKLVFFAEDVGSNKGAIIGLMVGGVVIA

Assay [1] deals with Flag-tagged Dectin-1 and HA-tagged Dectin-1 (UniProt Q6QLQ4). Nature of the assay: co-IP; HEK-293 (legend: HEK-293T) cells transfected with Flag-tagged and HA-tagged Dectin-1, exposed to 20 µM Aβ42 for indicated times; Flag-HA interaction.
The target in another assay is Biotinylated-Aβ42 (UniProt P05067). Nature of the assay: pull-down; 100 µL of 20 µM biotinylated Aβ42 on streptavidin-agarose beads (biotin alone as control); BV2 cell lysate added, 24 h at 4°C, washed 3 times, western blot; only the target purified. Background: Immunoblotting shows a protein as a band on a membrane.

No constants are given. Whether binding was seen depends on the method and setting. Binding seen in cells or lysates may run through a third protein. Some results given as binding are weak or reduced against the parent protein; the word gives no strength. For some assays here: Tags and fused reporters may be left off the sequences shown.

B1: Flag-tagged Dectin-1 and HA-tagged Dectin-1 (receptor, UniProt Q6QLQ4 1-244)
chain: MKYHSHIENLDEDGYTQLDFSTQDIHKRPRGSEKGSQAPSSPWRPIAVGLGILCFVVVVVAAVLGALGEYGHNSGRNPEEKDNFLSRNKENHKPTESSLDEKVAPSKASQTTGGFSQPCLPNWIMHGKSCYLFSFSGNSWYGSKRHCSQLGAHLLKIDNSKEFEFIESQTSSHRINAFWIGLSRNQSEGPWFWEDGSAFFPNSFQVRNTAPQESLLHNCVWIHGSEVYNQICNTSSYSICEKEL
In the case of B1, the binding entry in assay [1] is reported as “binds”.

B2: Dectin-1 (receptor, UniProt Q6QLQ4 1-244)
chain: B1 chain
On to B2, for which the binding result with Biotinylated-Aβ42 is given as “binds”.
